PubChem BioAssay AID493014 (National Center for Advancing Translational Sciences (NCATS), 2011)
The campaign covered roughly 340,000 compounds. About 170 (0.05%) were called active. This list was built around the results that the source calls inconclusive (neither active nor inactive); the mix of calls is not that of the screen. The call rests on the fitted dose curve; in most records, active means well fitted inhibition curve with a large enough effect in the signal ratio, with a control signal flat (not every such curve was filed as active); inconclusive means small, poorly fitted or top-dose-only effect, or effect the other way, or a change in a side signal; inactive means flat fitted curve, though single readings scatter; the % refers to the signal ratio. Potencies of inconclusive entries are doubtful fits and often do not repeat.

Assay: qHTS Assay to Find Inhibitors of Chronic Active B-Cell Receptor Signaling;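 on activity change, negative = inhibition: plate controls were basal doxycycline-induced cells for no effect and cells given 10 µM MG132 for full effect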
Details: ABC-DLBCL IkBa-CBG/CBR reporter, luminescence ratio (green luciferase fused to IkBa over red control in TMD8 lymphoma cells), 4 h; activity change, negative = inhibition: at 46.1 µM (top of the series)
Procedure, shortened: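 TMD8 human ABC-DLBCL cells with doxycycline-inducible IκBα–green luciferase fusion and unfused red luciferase, in 0.5% FBS medium; compounds up to 46 uM, 4 h at 37C. Green/red luminescence ratio, filter-overlap corrected, fitted to concentration-response curves.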
Potency means the concentration at half of the fitted maximal effect.

Compound | activity change, negative = inhibition | Potency
O=C(COc1ccccc1F)Nc1ccc(-c2nc3ccccc3s2)cc1 | inconclusive: 22.7% | 
Cc1ccc(C)c(N2C(=O)N(Cc3cc(=O)n4ccccc4n3)c3ccccc3S2(=O)=O)c1 |  | inconclusive: 17.8 µM [falling, partial curve]
Cn1c(O)c(N=NC(=O)CNC(=O)c2ccccc2)c2ccccc21 |  | inconclusive: 15.8 µM [falling, partial curve, poor fit]
CS(=O)(=O)Nc1ccccc1Oc1ccccc1 |  | inconclusive: 20.6 µM [falling, partial curve, poor fit]
O=C(NCCCO)c1cc2c([nH]c3ccccc32)c(-c2ccc(F)cc2)n1 | inconclusive: 1.66% | 
CCC1=NN(C(=O)Cc2ccc([N+](=O)[O-])cc2)C(O)(C(F)(F)F)C1 (stereo not given) | inconclusive: -8.49% | 
CCOc1ccccc1Nc1cc2n(c(=O)n1)CCc1cc(OC)c(OC)cc1-2 |  | inconclusive: 11.2 µM [falling, partial curve, poor fit]
CCC1CCCCN1CCCNC(=O)c1cc2c(Cl)nc3ccccc3c2s1 (stereo not given) | inconclusive: -25.4% | 
COc1ccc(NC(=O)c2cc(F)cc(F)c2)cc1S(=O)(=O)N1CCCCC1 | inactive: -0.0751% | 
Cc1ccc(-n2c(COc3ccccc3)n[nH]c2=S)cc1 |  | inconclusive: 22.4 µM [falling, partial curve, poor fit]
Cc1nc2ccc(NC(=O)c3cccs3)cc2s1 |  | inconclusive: 35.5 µM [falling, single point]
O=C(O)CN1C(=O)/C(=C\c2cccc(OCc3ccc(Cl)cc3)c2)SC1=S | inactive: 5.15% | 
CN1C(c2ccc(F)cc2)=CS/C1=C(/C#N)c1nnc(N2CCOCC2)n1-c1ccccc1 | inactive: 5.19% | 
COc1cc2c(O)c3c(c(-c4ccc5c(c4)OCO5)c2cc1OC)C(=O)OC3 |  | inconclusive: 2.24 µM [rising, full curve, poor fit]
CSc1nc(SCC(=O)NCc2ccco2)c2c3c(sc2n1)COC(C)(C)C3 | inconclusive: -26.4% | 
COc1cccc(C(=O)NC2CCN(CC(=O)Nc3c(C)cc(C)cc3C)CC2)c1 | inconclusive: -7.71% | 
O=C1c2ccccc2CN1c1ccccc1 | inconclusive: 18.7% | 
Cc1cc2n(n1)C(c1ccccc1)Nc1ccccc1-2 (stereo not given) | inconclusive: 12.1% | 
CCCn1nc([N+](=O)[O-])c(C(C#N)c2nc3ccccc3o2)c(Cl)c1=O (stereo not given) |  | inconclusive: 9.2 µM [rising, partial curve]
C#CCOCCOCCOCCNc1nc(N2CCN(C(=O)CCCCCCCCCCNC(=O)[C@H]([C@@H](C)CC)n3cc(CCCCCN)nn3)CC2)nc(N2CCN(C(=O)CCCCCCCCCCNC(=O)[C@@H]([C@H](C)CC)n3cc(CCCCCN)nn3)CC2)n1 | inconclusive: 20.6% | 
CCOC(=O)N1CCN(CC(O)COC2CC(C)CC(C)(C)C2)CC1 (stereo not given) | inconclusive: -0.896% | 
COc1ccc2c(c1OC)c(=O)n1c3ccc(OC(C)C(=O)NCCN4CCOCC4)cc3c3ccnc2c31 (stereo not given) | inconclusive: 15.6% | 
O=C(COC(=O)c1nc(Cl)c(Cl)c(Cl)c1Cl)c1ccc[nH]1 |  | inconclusive: 23.1 µM [falling, single point]
Cc1ccc(-c2nc(-c3ccncc3)no2)c(Cl)c1 | inconclusive: 12.7% | 
CCCCN(CC)CCCNC(=O)c1cc2c(=O)n(C)c3ccccc3c2n1C | inconclusive: -8.27% | 

Compound | activity change, negative = inhibition | Potency
Cc1ccc(-n2ncc3c(=O)n(CC(=O)N4CCN(C(=O)c5ccco5)CC4)cnc32)cc1 | inconclusive: 9.07% | 
CCCCCCCCCCOC(=O)Cn1c(COc2ccccc2OC)[n+](C)c2ccccc21 | inconclusive: -14.2% | 
O=c1cc(N2CCc3ccccc3C2)[nH]c(=O)n1-c1ccccc1Cl | inconclusive: -14.8% | 
Cc1cc(Cl)ccc1NC(=S)Nc1cccnc1 | inactive: -0.551% | 
CCCCCCC[C@@H](C/C=C/CCC(=O)N(C)C/C(=C/Cl)C/C(=C\C(=O)N1CC(OC)=CC1=O)OC)OC | inconclusive: 8.99% | 
Cc1ccc(C)c(NC(=O)c2cc(S(=O)(=O)N3CCOCC3)cn2C)c1 | inactive: 0.706% | 
Cc1ccc(NC(=O)c2sccc2-n2cccc2)c(Cl)c1 | inconclusive: 18.8% | 
O=C1OC(Nc2nc3ccccc3s2)c2ccccc21 (stereo not given) | inconclusive: 15.3% | 
CCN(CC)C(=O)c1sc2c(c1C)c(=O)n(-c1ccccc1)c(=O)n2CC(=O)Nc1ccc(C)cc1C |  | inconclusive: 5.62 µM [falling, single point]
N#Cc1c(NC(=O)CSc2ncn[nH]2)sc2c1CCCCC2 |  | inconclusive: 5.17 µM [falling, partial curve]
Cc1ccc(-c2cc(-c3ccccc3)[nH]c(=S)c2C#N)cc1 | inconclusive: 6.84% | 
c1ccc(CCCNc2ncnc3nc[nH]c23)cc1 |  | inconclusive: 20.6 µM [falling, single point]
CC1CC(CCC(=O)NC(=S)Nc2ccc(Cl)cn2)C(=O)O1 (stereo not given) | inconclusive: 0.962% | 
O=C(COc1ccc2c(c1)OCO2)Nc1ccccc1F |  | inconclusive: 31.6 µM [rising, single point]
S=c1[nH]nc(COc2ccccc2)n1/N=C/c1ccc(Br)s1 | inactive: -0.0745% | 
COc1ccc(-c2c3c(=O)n(C)c(=O)n(C)c3cn2-c2ccccc2O)cc1 | inconclusive: -23.1% | 
O=C(NCc1ccco1)c1ccccc1O | inconclusive: 6.16% | 
COc1ccccc1/C=C(/C(=O)OCC(=O)Nc1ccc(N(C)C)cc1)c1ccccc1 |  | inconclusive: 20.6 µM [falling, partial curve]
O=C(Nc1nc2c(cc3c4c(cccc42)CC3)s1)c1ccccc1Cl |  | inconclusive: 29.1 µM [falling, partial curve, poor fit]
CCOC(=O)C1CCCN(CC(=O)Nc2cccc(C(C)=O)c2)C1 (stereo not given) | inactive: 1.22% | 
Oc1ccc(Nc2nc(-c3ccc4ccccc4c3)cs2)cc1 |  | inconclusive: 0.82 µM [rising, full curve, poor fit]
COc1ccc(C(=O)N2CCN=C2SCc2cccnc2)c(OC)c1 | inconclusive: 0.888% | 
N#CCC(=O)N/N=C\c1ccc(OC/C=C/c2ccccc2)cc1 | inconclusive: -10.2% | 
COc1cc(NC(=O)c2ccc(COCC(F)(F)F)o2)cc(OC)c1OC |  | inconclusive: 20.6 µM [falling, partial curve, poor fit]
Cn1cnnc1SCc1ccc(F)c2ccccc12 | inconclusive: 2.92% | 

19 structures from above, arranged by length of the SMILES, high to low:
Compound | activity change, negative = inhibition | Potency
CCCCCCC[C@@H](C/C=C/CCC(=O)N(C)C/C(=C/Cl)C/C(=C\C(=O)N1CC(OC)=CC1=O)OC)OC | inconclusive: 8.99% | 
COc1ccc2c(c1OC)c(=O)n1c3ccc(OC(C)C(=O)NCCN4CCOCC4)cc3c3ccnc2c31 (stereo not given) | inconclusive: 15.6% | 
Cc1ccc(C)c(N2C(=O)N(Cc3cc(=O)n4ccccc4n3)c3ccccc3S2(=O)=O)c1 |  | inconclusive: 17.8 µM [falling, partial curve]
CN1C(c2ccc(F)cc2)=CS/C1=C(/C#N)c1nnc(N2CCOCC2)n1-c1ccccc1 | inactive: 5.19% | 
COc1ccccc1/C=C(/C(=O)OCC(=O)Nc1ccc(N(C)C)cc1)c1ccccc1 |  | inconclusive: 20.6 µM [falling, partial curve]
CCCn1nc([N+](=O)[O-])c(C(C#N)c2nc3ccccc3o2)c(Cl)c1=O (stereo not given) |  | inconclusive: 9.2 µM [rising, partial curve]
COc1ccc(NC(=O)c2cc(F)cc(F)c2)cc1S(=O)(=O)N1CCCCC1 | inactive: -0.0751% | 
O=C(NCCCO)c1cc2c([nH]c3ccccc32)c(-c2ccc(F)cc2)n1 | inconclusive: 1.66% | 
CCCCN(CC)CCCNC(=O)c1cc2c(=O)n(C)c3ccccc3c2n1C | inconclusive: -8.27% | 
O=C(COC(=O)c1nc(Cl)c(Cl)c(Cl)c1Cl)c1ccc[nH]1 |  | inconclusive: 23.1 µM [falling, single point]
Cn1c(O)c(N=NC(=O)CNC(=O)c2ccccc2)c2ccccc21 |  | inconclusive: 15.8 µM [falling, partial curve, poor fit]
Cc1ccc(-c2cc(-c3ccccc3)[nH]c(=S)c2C#N)cc1 | inconclusive: 6.84% | 
S=c1[nH]nc(COc2ccccc2)n1/N=C/c1ccc(Br)s1 | inactive: -0.0745% | 
Oc1ccc(Nc2nc(-c3ccc4ccccc4c3)cs2)cc1 |  | inconclusive: 0.82 µM [rising, full curve, poor fit]
Cc1ccc(-c2nc(-c3ccncc3)no2)c(Cl)c1 | inconclusive: 12.7% | 
Cc1cc2n(n1)C(c1ccccc1)Nc1ccccc1-2 (stereo not given) | inconclusive: 12.1% | 
O=C(COc1ccc2c(c1)OCO2)Nc1ccccc1F |  | inconclusive: 31.6 µM [rising, single point]
CS(=O)(=O)Nc1ccccc1Oc1ccccc1 |  | inconclusive: 20.6 µM [falling, partial curve, poor fit]
O=C(NCc1ccco1)c1ccccc1O | inconclusive: 6.16% | 

Going on with the list:

Compound | activity change, negative = inhibition | Potency
CC(=O)N=c1sc2cc(C)ccc2n1C |  | inconclusive: 18.4 µM [falling, single point]
O=C(N/N=C/c1coc2ccc(Cl)cc2c1=O)c1cc(O)cc(O)c1 | inactive: -3.3% | 
CS(=O)(=O)N(CC(=O)N1CCN(c2ccccc2)CC1)Cc1ccc(Cl)cc1 | inconclusive: -9.95% | 
Cc1nc2ccccc2n1CCc1nc2c3ccccc3nc(SCC(=O)NCc3ccco3)n2n1 | inconclusive: 7.95% | 
O=C(CN1C(=O)NC2(CCCC2)C1=O)OCc1cc(=O)n2cc(Br)ccc2n1 | inconclusive: 16.8% | 
CC(=O)Oc1cccc(NC(=O)c2cccc(C(=O)Nc3cccc(OC(C)=O)c3)c2)c1 |  | inconclusive: 35.5 µM [falling, partial curve, poor fit]
CC(C)(C)Cc1nnc(NC(=O)c2ccc([N+](=O)[O-])cc2)s1 | inconclusive: 1.99% | 
COc1ccc(NC(=O)O/N=C/c2ccccc2Cl)cc1 | inconclusive: -0.133% | 
COc1ccc(C(=O)NC(=S)Nc2ccc(Cl)c(C(=O)O)c2)cc1 |  | inconclusive: 35.5 µM [falling, single point]
COC(=O)CSc1nnc(-c2ccc(S(=O)(=O)N3CCCCC3)cc2)o1 |  | inconclusive: 0.651 µM [rising, full curve, poor fit]
Cc1ccc(NC(=O)c2oc3ccc(S(=O)(=O)N(C)C4CCCCC4)cc3c2C)cc1Cl | inactive: -8.41% | 
COc1ccc(/C=C\c2onc(C)c2S(=O)(=O)N2CCC(C(=O)NCc3ccco3)CC2)cc1 | inconclusive: 2.6% | 
COc1cc2ccccc2cc1C(=O)NC(=S)Nc1nnn(C)n1 | inactive: 7.24% | 
O=C(CCCN1C(=O)c2cccc3cccc(c23)C1=O)Nc1ccon1 | inconclusive: 10.9% | 
Cc1cccc2c(C(=O)N3CCN(c4ccccc4)CC3)cc(-c3ccncc3)nc12 |  | inconclusive: 12.6 µM [falling, partial curve, poor fit]
Cc1occc1C(=O)NCCCCc1ccccc1 |  | inconclusive: 20.6 µM [falling, partial curve]
COc1ccc(Cn2c(C(F)(F)F)ccc(C(N)=O)c2=O)cc1 | inconclusive: -10.1% | 
CC(C)CC1NC(=O)N(CC(=O)N2CCN(S(=O)(=O)c3ccc(Cl)cc3)CC2)C1=O (stereo not given) | inconclusive: 1.39% | 
CC1CCC(NC(=O)c2nn(C)c3c2CSc2ccccc2-3)CC1 (stereo not given) | inactive: -2.53% | 
O=C(COC(=O)c1ccccc1Br)NCCN1C(=O)CSC1=O | inactive: -7.03% | 
COc1cc(/C=N/NC(=O)c2ccc3ccccc3c2)ccc1Oc1ccc([N+](=O)[O-])cn1 | inconclusive: 13.6% | 
CCC1=NN2C(=N)/C(=C\c3ccc(OCCOc4ccccc4)c(OC)c3)C(=O)N=C2S1 | inconclusive: 8.16% | 
COc1cccc2[nH]c(C(=O)NCCCN3CCCC3=O)cc12 | inconclusive: 0.23% | 
COc1ccc(-c2csc(NC(=O)CSc3nnnn3C)n2)cc1OC | inconclusive: -7.97% | 
CCOc1ccc(C(=O)NC(=S)Nc2cccnc2)cc1[N+](=O)[O-] |  | inconclusive: 1.58 µM [rising, partial curve, poor fit]
